US20250369123A1, “ALKOXYIMI[…] COMPOSITIONS AND METHODS OF USING THE COMPOSITIONS TO INHIBIT CORROSION” (Ecolab USA Inc., priority 2024, published 2025)

Experiment: Wheel box test (NACE ID182), corrosion protection in CO2-saturated brine/oil
Conditions: for % Protection: 80°C, 24 hours, 80% ASTM Seawater brine / 20% LVT-200, CO2 saturated; for % Improvement: improvement of % Protection relative to Control

Compound | % Protection (inhibitor 10 ppm) | % Improvement (inhibitor 10 ppm) | % Protection (inhibitor 25 ppm) | % Improvement (inhibitor 25 ppm) | % Protection (inhibitor 50 ppm) | % Improvement (inhibitor 50 ppm)
CCCCCCCC/C=C\CCCCCCCC1=[N+](CC(C)O)CCN1CCO (stereo not drawn) [Composition 1, (Z)-2-(heptadec-8-en-1-yl)-1-(2-hydroxyethyl)-3-(2-hydroxypropyl)-4,5-dihydro-1H-imidazol-3-ium Gluconate] | 33.0% | 24% | 63.0% | 45% | 73.0% | 46%
CCCCCCCC/C=C\CCCCCCCC1=[N+](CC(O)c2ccccc2)CCN1CCO (stereo not drawn) [Composition 2, (Z)-2-(heptadec-8-en-1-yl)-3-(2-hydroxy-2-phenylethyl)-1-(2-hydroxyethyl)-4,5-dihydro-1H-imidazol-3-ium Gluconate] | 45.0% | 70% | 65.0% | 49% | 79.5% | 59%
(Z)-2-(heptadec-8-en-1-yl)-1-(2-hydroxyethyl)-4,5-dihydro-1H-imidazol-3-ium gluconate [Control, reference compound] | 26.5% | – | 43.5% | – | 50.0% | –
